# Measurements: the supplement of paper PMC10849652
# Chains of the proteins cited; added tags and fusions are not shown. Lines headed by an entry give the natural chain unless they say otherwise; changes in a name come on top.
# UniProt Q658P3: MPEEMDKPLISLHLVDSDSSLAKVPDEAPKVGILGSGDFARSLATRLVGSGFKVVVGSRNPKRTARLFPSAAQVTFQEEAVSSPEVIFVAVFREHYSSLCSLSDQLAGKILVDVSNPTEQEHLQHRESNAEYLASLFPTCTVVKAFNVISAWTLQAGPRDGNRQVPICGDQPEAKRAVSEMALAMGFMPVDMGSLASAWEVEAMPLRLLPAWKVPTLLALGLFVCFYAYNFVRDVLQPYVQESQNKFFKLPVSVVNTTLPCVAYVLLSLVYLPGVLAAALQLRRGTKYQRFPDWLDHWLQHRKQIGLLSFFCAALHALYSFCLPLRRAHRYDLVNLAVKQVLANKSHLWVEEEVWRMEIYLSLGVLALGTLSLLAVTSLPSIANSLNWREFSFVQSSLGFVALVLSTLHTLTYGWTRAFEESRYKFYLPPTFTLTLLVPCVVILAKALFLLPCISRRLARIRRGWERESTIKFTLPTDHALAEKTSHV
# UniProt P42229: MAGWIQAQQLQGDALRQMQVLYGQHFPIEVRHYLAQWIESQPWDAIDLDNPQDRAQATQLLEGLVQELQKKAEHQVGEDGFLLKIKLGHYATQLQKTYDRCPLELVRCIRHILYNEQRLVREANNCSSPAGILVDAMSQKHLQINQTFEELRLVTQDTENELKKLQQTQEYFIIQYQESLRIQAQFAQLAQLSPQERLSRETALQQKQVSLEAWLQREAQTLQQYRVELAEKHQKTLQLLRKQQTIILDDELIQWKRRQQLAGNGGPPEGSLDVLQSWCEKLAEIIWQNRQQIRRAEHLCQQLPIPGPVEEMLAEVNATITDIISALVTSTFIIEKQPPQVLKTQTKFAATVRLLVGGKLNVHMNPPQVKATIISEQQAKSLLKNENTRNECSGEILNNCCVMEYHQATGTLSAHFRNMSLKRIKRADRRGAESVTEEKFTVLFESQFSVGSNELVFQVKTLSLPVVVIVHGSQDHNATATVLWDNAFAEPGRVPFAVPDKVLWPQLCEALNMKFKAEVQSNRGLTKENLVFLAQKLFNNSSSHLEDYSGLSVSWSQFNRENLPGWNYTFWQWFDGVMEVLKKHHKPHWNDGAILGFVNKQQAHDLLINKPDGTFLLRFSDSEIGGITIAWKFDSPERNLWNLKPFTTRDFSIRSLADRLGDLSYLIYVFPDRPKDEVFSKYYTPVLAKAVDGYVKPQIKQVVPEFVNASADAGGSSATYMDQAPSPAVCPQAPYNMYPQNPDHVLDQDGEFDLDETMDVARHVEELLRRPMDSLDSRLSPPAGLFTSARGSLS
# UniProt Q9Y6N5: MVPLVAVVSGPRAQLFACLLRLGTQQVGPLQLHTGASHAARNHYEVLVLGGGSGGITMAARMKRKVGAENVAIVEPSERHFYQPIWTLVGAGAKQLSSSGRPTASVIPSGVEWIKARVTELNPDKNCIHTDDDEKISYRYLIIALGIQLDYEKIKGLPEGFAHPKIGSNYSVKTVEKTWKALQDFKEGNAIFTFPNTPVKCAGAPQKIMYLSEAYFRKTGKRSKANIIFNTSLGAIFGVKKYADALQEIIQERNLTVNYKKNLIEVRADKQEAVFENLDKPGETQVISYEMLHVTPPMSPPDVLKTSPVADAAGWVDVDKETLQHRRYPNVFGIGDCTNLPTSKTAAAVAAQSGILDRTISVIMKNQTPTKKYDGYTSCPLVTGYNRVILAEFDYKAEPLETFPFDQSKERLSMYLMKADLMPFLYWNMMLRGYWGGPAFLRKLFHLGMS
# UniProt Q96JI7: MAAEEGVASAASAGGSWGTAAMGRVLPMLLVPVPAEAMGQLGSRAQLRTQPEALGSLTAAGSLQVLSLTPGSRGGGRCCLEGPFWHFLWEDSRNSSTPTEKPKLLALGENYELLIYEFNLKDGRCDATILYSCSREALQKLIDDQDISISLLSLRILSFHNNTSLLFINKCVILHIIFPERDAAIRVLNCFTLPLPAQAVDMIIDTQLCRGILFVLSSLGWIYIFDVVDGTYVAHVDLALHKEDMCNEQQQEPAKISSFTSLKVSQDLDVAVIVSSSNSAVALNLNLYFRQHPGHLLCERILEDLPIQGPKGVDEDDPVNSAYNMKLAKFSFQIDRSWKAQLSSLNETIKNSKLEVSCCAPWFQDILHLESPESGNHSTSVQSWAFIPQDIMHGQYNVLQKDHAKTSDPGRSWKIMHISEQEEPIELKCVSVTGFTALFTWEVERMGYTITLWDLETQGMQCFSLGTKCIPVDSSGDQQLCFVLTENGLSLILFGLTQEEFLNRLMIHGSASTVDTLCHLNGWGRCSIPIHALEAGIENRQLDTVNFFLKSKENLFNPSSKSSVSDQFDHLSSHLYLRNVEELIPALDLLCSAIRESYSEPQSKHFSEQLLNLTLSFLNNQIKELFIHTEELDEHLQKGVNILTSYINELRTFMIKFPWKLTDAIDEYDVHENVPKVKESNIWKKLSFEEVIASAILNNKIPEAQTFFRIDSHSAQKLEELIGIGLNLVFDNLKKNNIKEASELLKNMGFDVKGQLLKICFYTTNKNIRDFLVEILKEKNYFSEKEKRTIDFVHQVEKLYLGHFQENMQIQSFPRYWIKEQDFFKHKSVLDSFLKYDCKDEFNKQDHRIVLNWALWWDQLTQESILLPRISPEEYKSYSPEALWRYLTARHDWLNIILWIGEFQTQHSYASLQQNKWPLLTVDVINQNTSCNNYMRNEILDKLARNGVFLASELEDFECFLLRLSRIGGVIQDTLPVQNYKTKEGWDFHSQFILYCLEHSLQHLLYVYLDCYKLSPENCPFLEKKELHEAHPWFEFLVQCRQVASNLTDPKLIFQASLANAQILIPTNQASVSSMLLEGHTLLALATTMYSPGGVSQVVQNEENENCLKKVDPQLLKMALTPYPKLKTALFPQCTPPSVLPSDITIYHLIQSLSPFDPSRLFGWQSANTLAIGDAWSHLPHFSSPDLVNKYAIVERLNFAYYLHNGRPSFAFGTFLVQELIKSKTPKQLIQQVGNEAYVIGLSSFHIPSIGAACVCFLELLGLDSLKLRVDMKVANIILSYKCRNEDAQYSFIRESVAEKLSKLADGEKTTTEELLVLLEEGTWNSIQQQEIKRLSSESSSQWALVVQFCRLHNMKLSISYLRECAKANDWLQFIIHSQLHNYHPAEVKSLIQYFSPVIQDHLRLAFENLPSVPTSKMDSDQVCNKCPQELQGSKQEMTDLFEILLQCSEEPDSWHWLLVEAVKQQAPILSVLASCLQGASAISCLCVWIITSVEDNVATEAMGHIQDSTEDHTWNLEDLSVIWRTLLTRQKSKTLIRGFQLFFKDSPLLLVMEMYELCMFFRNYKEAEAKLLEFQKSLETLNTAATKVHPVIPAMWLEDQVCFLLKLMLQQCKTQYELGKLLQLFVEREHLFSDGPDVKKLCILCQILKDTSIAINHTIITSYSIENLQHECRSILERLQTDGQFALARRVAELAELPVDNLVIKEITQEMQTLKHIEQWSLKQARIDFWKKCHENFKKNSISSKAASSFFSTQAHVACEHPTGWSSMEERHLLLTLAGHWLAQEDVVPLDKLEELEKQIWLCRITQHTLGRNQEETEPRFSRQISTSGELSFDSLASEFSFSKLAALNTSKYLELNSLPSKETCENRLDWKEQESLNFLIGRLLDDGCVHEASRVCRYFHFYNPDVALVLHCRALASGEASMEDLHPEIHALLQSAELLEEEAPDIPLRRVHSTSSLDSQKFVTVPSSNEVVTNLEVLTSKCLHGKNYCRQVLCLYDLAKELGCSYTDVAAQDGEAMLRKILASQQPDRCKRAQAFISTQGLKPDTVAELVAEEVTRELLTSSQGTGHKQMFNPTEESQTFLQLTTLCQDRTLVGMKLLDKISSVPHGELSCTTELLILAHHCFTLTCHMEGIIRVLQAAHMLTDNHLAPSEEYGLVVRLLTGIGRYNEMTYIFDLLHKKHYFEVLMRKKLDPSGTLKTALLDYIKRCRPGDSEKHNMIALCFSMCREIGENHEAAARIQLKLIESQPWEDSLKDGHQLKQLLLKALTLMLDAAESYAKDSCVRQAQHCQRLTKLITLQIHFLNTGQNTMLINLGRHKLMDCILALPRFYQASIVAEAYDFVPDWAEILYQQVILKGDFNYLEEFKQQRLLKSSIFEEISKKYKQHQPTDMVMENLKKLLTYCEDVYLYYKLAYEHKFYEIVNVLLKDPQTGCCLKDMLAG
# UniProt O75494: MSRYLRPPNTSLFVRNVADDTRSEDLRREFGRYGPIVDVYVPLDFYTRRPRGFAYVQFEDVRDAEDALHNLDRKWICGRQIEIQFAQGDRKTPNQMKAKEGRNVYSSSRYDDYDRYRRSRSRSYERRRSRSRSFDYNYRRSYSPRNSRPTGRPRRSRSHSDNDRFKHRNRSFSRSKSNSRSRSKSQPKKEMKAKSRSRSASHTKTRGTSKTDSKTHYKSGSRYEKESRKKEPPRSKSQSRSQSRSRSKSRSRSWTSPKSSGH
# UniProt Q13242, whole entry, looked up: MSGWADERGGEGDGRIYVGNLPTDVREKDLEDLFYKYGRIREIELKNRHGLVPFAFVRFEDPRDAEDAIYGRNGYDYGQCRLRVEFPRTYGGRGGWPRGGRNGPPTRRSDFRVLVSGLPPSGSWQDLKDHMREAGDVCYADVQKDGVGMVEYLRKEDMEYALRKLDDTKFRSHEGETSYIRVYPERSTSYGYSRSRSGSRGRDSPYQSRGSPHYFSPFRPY
# UniProt Q13586, whole entry, looked up: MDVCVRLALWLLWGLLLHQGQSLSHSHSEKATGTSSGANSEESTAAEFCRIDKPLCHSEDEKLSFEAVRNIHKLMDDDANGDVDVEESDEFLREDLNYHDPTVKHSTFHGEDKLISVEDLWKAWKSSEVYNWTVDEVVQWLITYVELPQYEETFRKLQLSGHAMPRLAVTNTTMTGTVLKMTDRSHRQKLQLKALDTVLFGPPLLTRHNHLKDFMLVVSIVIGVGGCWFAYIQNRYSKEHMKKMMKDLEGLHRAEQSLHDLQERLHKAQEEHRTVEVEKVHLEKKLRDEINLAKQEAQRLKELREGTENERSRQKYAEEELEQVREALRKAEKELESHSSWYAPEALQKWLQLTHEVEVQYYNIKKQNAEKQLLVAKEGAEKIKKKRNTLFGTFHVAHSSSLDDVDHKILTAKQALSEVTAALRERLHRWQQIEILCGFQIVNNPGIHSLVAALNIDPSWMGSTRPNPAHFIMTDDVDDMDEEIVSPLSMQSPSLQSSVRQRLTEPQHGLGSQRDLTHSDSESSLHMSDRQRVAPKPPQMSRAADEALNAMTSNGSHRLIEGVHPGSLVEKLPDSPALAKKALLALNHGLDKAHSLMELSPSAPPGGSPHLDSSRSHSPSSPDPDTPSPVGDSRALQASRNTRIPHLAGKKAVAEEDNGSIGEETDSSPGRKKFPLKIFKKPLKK
# UniProt Q9P289: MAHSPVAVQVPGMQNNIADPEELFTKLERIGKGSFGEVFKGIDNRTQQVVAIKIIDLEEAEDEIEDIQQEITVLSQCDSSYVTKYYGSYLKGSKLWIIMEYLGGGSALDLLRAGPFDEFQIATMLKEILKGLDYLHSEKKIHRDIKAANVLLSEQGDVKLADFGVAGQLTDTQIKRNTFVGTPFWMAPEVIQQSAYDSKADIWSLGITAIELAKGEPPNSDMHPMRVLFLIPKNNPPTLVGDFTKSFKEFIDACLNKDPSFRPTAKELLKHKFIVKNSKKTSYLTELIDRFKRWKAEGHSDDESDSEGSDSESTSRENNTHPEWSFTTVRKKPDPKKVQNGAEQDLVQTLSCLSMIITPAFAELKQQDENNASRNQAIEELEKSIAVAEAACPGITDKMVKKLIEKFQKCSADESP
# UniProt Q9Y365: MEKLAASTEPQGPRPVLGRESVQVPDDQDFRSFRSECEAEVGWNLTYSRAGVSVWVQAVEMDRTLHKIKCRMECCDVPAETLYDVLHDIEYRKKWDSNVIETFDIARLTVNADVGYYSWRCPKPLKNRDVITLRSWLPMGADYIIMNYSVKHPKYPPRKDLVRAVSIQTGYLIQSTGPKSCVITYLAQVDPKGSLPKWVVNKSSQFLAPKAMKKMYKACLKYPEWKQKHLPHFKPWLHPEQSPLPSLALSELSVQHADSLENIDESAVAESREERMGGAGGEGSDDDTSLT
# UniProt Q15005: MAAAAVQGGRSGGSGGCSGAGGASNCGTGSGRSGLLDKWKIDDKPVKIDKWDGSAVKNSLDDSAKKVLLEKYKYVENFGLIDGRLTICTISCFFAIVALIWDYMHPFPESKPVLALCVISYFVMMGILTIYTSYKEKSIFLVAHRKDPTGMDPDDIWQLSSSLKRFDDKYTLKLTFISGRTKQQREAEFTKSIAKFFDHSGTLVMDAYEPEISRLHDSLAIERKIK
# This is one part of the list.
# Tests used:
# Experiment in all cases: log2 fold change, soluble protein after heating vs DMSO (PISA); higher = thermal stabilisation; K562 cells, 10 uM, 30 min; active = over 0.2 and 3.5 SD of the protein, either way, in both replicates (recomputed)
# [1] = compound: CN1CCN(CCOc2cc(OC3CCOCC3)c3c(Nc4c(Cl)ccc5c4OCO5)ncnc3c2)CC1 [saracatinib]
# In short: (§1)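 Thermal stability values are relative to control samples and come from duplicates. They are expressed as log2 fold changes. For measurement, K562 cells (2×10^6 cells/mL) received 10 μM compound for 30 min, and aliquots were heated for 3 min over 48°C-58°C, pooled, and extracted at 4°C in PBS with 0.5% NP-40. Soluble protein, the supernatant after 21,000xg for 90 min, was quantified by TMTpro 16plex LC-MS/MS with equalised channel sums.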
# [2] = compound: CN1CCN(c2nc(C3=C(c4c[nH]c5ccccc45)C(=O)NC3=O)c3ccccc3n2)CC1 [sotrastaurin]
# In short: as §1
# [3] = compound: CN1CCc2c(c3ccccc3n2Cc2ccc(C(=O)NO)cc2)C1 [Tubastatin A]
# In short: as §1
# [4] = compound: CNC(=O)C1=CC=CC=C1NC2=NC(=NC=C2Cl)NC3=C(C=C(C=C3)N4CCOCC4)OC
# In short: as §1
# [5] = compound: CNC(=O)c1ccc(Nc2ncc(C(F)(F)F)c(NCc3nccnc3N(C)S(C)(=O)=O)n2)cc1 [defactinib]
# In short: as §1
# [6] = compound: CNCc1ccc(-c2[nH]c3cc(F)cc4c3c2CCNC4=O)cc1 [rucaparib]
# In short: as §1
# [7] = compound: CNc1nc(-c2ccc3c(N)n[nH]c3c2)cc(N2C[C@@H](C(=O)NC3CCCCC3)CC[C@H]2C)n1
# In short: as §1
# [8] = compound: COC(=O)N[C@@H](C)CNc1nccc(-c2cn(C(C)C)nc2-c2cc(Cl)cc(NS(C)(=O)=O)c2F)n1 [encorafenib]
# In short: as §1
# [9] = compound: COC(=O)[C@H](CCSC)NC(=O)C1=C(C=C(C=C1)NC[C@H](CS)N)C2=CC=CC=C2
# In short: as §1
# [10] = compound: COC1=CC=C(C=C1)CN2C=CC3=C2C=C(C=C3)C(=O)NO
# In short: as §1
# [11] = compound: CON(C)C(=O)N1N=C(c2cc(F)ccc2F)S[C@@]1(CCCN)c1ccccc1 [filanesib]
# In short: as §1
# [12] = compound: CO[C@H]1C[C@@H]2CC[C@@H](C)[C@@](O)(O2)C(=O)C(=O)N2CCCC[C@H]2C(=O)O[C@H]([C@H](C)C[C@@H]2CC[C@H](n3cnnn3)[C@H](OC)C2)CC(=O)[C@H](C)/C=C(\C)[C@@H](O)[C@@H](OC)C(=O)[C@H](C)C[C@H](C)/C=C/C=C/C=C/1C [zotarolimus]
# In short: as §1
# [13] = compound: COc1cc(C(=O)O)ccc1NC(=O)[C@@H]1N[C@@H](CC(C)(C)C)[C@](C#N)(c2ccc(Cl)cc2F)[C@H]1c1cccc(Cl)c1F [idasanutlin]
# In short: as §1
# [14] = compound: COc1cc(Nc2ncc3c(n2)-c2ccc(Cl)cc2C(c2c(F)cccc2OC)=NC3)ccc1C(=O)O [alisertib]
# In short: as §1
# [15] = compound: COc1cc2nc(-c3cc(F)ccc3O)nc(N[C@@H]3CNC[C@H]3C(C)(C)O)c2cc1OC
# In short: as §1
# [16] = compound: COc1cc2ncnc(Nc3ccc(F)c(Cl)c3)c2cc1OCCCN1CCOCC1 [gefitinib]
# In short: as §1
# [17] = compound: COc1cccc2cc(-c3nc([C@H]4CC[C@H](C(=O)O)CC4)n4ncnc(N)c34)[nH]c12
# In short: as §1
# [18] = compound: CS(=O)(=O)CCNCc1ccc(-c2ccc3ncnc(Nc4ccc(OCc5cccc(F)c5)c(Cl)c4)c3c2)o1 [lapatinib]
# In short: as §1
# [19] = compound: CS(=O)(=O)N1CCN(Cc2cc3nc(-c4cccc5[nH]ncc45)nc(N4CCOCC4)c3s2)CC1 [pictilisib]
# In short: as §1
Target,log2 fold change [1],log2 fold change [2],log2 fold change [3],log2 fold change [4],log2 fold change [5],log2 fold change [6],log2 fold change [7],log2 fold change [8],log2 fold change [9],log2 fold change [10],log2 fold change [11],log2 fold change [12],log2 fold change [13],log2 fold change [14],log2 fold change [15],log2 fold change [16],log2 fold change [17],log2 fold change [18],log2 fold change [19]
ST6GAL1 (UniProt P15907),inactive: -0.001,inactive: 0.018,inactive: 0.026,inactive: 0.159,inactive: -0.03,inactive: 0.004,inactive: 0.05,inactive: 0.037,inactive: -0.08,inactive: 0.013,active: 0.224,inactive: 0.051,inactive: 0.066,inactive: -0.085,inactive: 0.046,inactive: 0.095,inactive: -0.003,inactive: 0.116,inactive: 0.063
STEAP3 isoform 2 (UniProt Q658P3),inactive: -0.02,inactive: -0.027,inactive: -0.027,inactive: -0.025,inactive: -0.067,inactive: 0.055,inactive: -0.024,inactive: 0.012,inactive: 0.006,inactive: -0.028,inactive: -0.014,inactive: -0.06,inactive: -0.11,inactive: -0.028,inactive: 0.035,inactive: -0.01,inactive: 0.025,inactive: 0.013,active: 0.227
STAT5A (UniProt P42229),inactive: -0.093,inactive: -0.14,inactive: 0.088,inactive: -0.001,inactive: -0.273,inactive: 0.006,inactive: 0.054,inactive: 0.088,inactive: -0.059,inactive: 0.034,inactive: 0.018,inactive: 0.094,inactive: 0.032,inactive: -0.056,inactive: 0.009,inactive: 0.047,inactive: -0.128,inactive: 0,inactive: -0.096
SQOR (UniProt Q9Y6N5),inactive: 0.189,inactive: 0.18,–,inactive: 0.016,inactive: -0.021,–,inactive: -0.082,–,inactive: 0.22,–,inactive: 0.112,–,–,–,–,–,–,–,inactive: 0.145
SPG11 (UniProt Q96JI7),inactive: -0.281,inactive: 0.055,inactive: 0.012,inactive: -0.156,inactive: 0.151,inactive: 0.046,inactive: 0.119,inactive: -0.094,inactive: 0.069,inactive: -0.232,inactive: 0.158,inactive: -0.415,inactive: -0.118,inactive: 0.388,inactive: 0.14,inactive: -0.032,inactive: 0.331,inactive: -0.167,inactive: 0.401
STAT5B (UniProt P51692),inactive: -0.231,inactive: -0.083,inactive: 0.045,inactive: -0.053,inactive: -0.33,inactive: 0.105,inactive: 0.138,inactive: 0.073,inactive: -0.052,inactive: 0.13,inactive: -0.036,inactive: 0.112,inactive: 0.086,inactive: -0.038,inactive: -0.115,inactive: 0.046,inactive: -0.094,inactive: 0.029,inactive: -0.148
SRSF10 (UniProt O75494),inactive: -0.002,inactive: 0.041,inactive: -0.009,inactive: -0.053,inactive: 0.233,inactive: 0.314,inactive: 0.068,inactive: 0.133,inactive: 0.14,inactive: -0.102,inactive: 0.424,inactive: -0.157,inactive: 0.388,inactive: -0.099,inactive: -0.169,inactive: -0.009,inactive: -0.056,inactive: 0.101,inactive: -0.042
ST3GAL2 (UniProt Q16842),inactive: -0.103,inactive: 0.036,inactive: 0.107,inactive: 0.129,inactive: -0.02,inactive: 0.093,inactive: 0.138,inactive: 0.06,inactive: -0.136,inactive: 0.087,inactive: 0.124,inactive: 0.092,inactive: 0.075,inactive: -0.134,inactive: 0.1,inactive: 0.187,inactive: -0.043,inactive: 0.17,inactive: 0.102
SRCAP (UniProt Q6ZRS2),inactive: 0.032,inactive: -0.045,active: -0.486,inactive: -0.069,inactive: -0.004,inactive: -0.058,inactive: -0.028,inactive: 0.009,inactive: -0.015,inactive: -0.083,inactive: 0.097,inactive: -0.02,–,inactive: -0.091,inactive: -0.067,inactive: 0.198,inactive: 0.062,inactive: 0.049,inactive: 0.015
SRSF9 (UniProt Q13242),inactive: 0.022,inactive: -0.015,–,inactive: -0.145,inactive: 0.276,inactive: 0.376,inactive: 0.097,inactive: 0.149,inactive: -0.024,inactive: -0.088,inactive: 0.378,inactive: -0.026,inactive: 0.297,inactive: -0.118,inactive: -0.09,inactive: -0.068,inactive: -0.128,inactive: 0.155,inactive: -0.036
STAM2 (UniProt O75886),inactive: -0.093,inactive: -0.011,inactive: -0.014,inactive: 0.035,inactive: -0.095,inactive: -0.035,inactive: -0.02,inactive: 0.027,inactive: -0.019,inactive: -0.006,inactive: 0.059,inactive: -0.018,inactive: -0.06,inactive: 0.015,inactive: 0.001,inactive: 0.002,inactive: -0.066,inactive: -0.018,inactive: 0.055
STIM1 (UniProt Q13586),inactive: 0.003,inactive: 0,inactive: -0.029,inactive: -0.001,inactive: -0.048,inactive: 0.011,inactive: -0.047,inactive: 0.052,inactive: 0.032,inactive: 0.048,inactive: -0.123,inactive: 0.041,inactive: 0.02,inactive: -0.029,inactive: -0.218,inactive: 0,inactive: 0.037,inactive: -0.011,inactive: 0.036
STK26 (UniProt Q9P289),inactive: -0.027,inactive: 0.009,inactive: -0.049,inactive: -0.057,inactive: 0.067,inactive: -0.005,inactive: -0.001,inactive: 0.032,inactive: 0.054,inactive: 0.018,inactive: -0.147,inactive: -0.03,inactive: 0.045,inactive: -0.059,inactive: 0.069,inactive: -0.037,inactive: 0.009,inactive: 0.019,inactive: -0.105
STARD10 (UniProt Q9Y365),inactive: 0.086,inactive: -0.115,–,inactive: -0.012,inactive: -0.118,inactive: -0.065,inactive: 0.099,inactive: -0.142,inactive: -0.114,–,inactive: 0.089,–,–,–,–,–,–,–,–
SQSTM1 (UniProt Q13501),inactive: -0.038,inactive: -0.073,inactive: -0.022,inactive: -0.024,inactive: -0.074,inactive: -0.021,inactive: -0.048,inactive: 0.012,inactive: 0.051,inactive: 0.047,inactive: 0.011,inactive: -0.167,inactive: 0.072,inactive: -0.016,inactive: -0.136,inactive: -0.022,inactive: 0.058,inactive: -0.012,inactive: -0.112
SPCS2 (UniProt Q15005),inactive: -0.029,inactive: -0.054,inactive: -0.026,inactive: 0.062,inactive: -0.026,inactive: -0.062,inactive: 0.038,inactive: 0.044,inactive: 0.021,active: 0.5,inactive: -0.061,inactive: 0.018,inactive: -0.039,inactive: 0.008,inactive: 0.092,inactive: 0.03,inactive: -0.021,inactive: 0.002,inactive: -0.006
STAT6 (UniProt P42226),inactive: 0.087,inactive: 0.115,inactive: 0.101,inactive: 0.029,inactive: -0.121,inactive: 0.076,inactive: 0.201,inactive: 0.189,inactive: -0.168,inactive: 0.019,inactive: 0.091,inactive: 0.055,inactive: 0.102,inactive: 0.094,inactive: 0.002,inactive: 0.014,inactive: 0.155,inactive: -0.016,inactive: -0.13
SPART (UniProt Q8N0X7),inactive: -0.03,inactive: -0.011,inactive: -0.05,inactive: 0.001,inactive: -0.109,inactive: -0.02,inactive: -0.032,inactive: 0.027,inactive: -0.014,inactive: -0.073,inactive: 0.011,inactive: 0.02,inactive: 0.03,inactive: -0.009,inactive: 0.067,inactive: 0.054,inactive: -0.028,inactive: -0.015,inactive: 0.05

# Complete entries from above. Order of values: log2 fold change [1] | log2 fold change [2] | log2 fold change [3] | log2 fold change [4] | log2 fold change [5] | log2 fold change [6] | log2 fold change [7] | log2 fold change [8] | log2 fold change [9] | log2 fold change [10] | log2 fold change [11] | log2 fold change [12] | log2 fold change [13] | log2 fold change [14] | log2 fold change [15] | log2 fold change [16] | log2 fold change [17] | log2 fold change [18] | log2 fold change [19]
# STEAP3 isoform 2 (UniProt Q658P3) is listed with inactive: -0.02 | inactive: -0.027 | inactive: -0.027 | inactive: -0.025 | inactive: -0.067 | inactive: 0.055 | inactive: -0.024 | inactive: 0.012 | inactive: 0.006 | inactive: -0.028 | inactive: -0.014 | inactive: -0.06 | inactive: -0.11 | inactive: -0.028 | inactive: 0.035 | inactive: -0.01 | inactive: 0.025 | inactive: 0.013 | active: 0.227
# SRCAP (UniProt Q6ZRS2) is listed with inactive: 0.032 | inactive: -0.045 | active: -0.486 | inactive: -0.069 | inactive: -0.004 | inactive: -0.058 | inactive: -0.028 | inactive: 0.009 | inactive: -0.015 | inactive: -0.083 | inactive: 0.097 | inactive: -0.02 | – | inactive: -0.091 | inactive: -0.067 | inactive: 0.198 | inactive: 0.062 | inactive: 0.049 | inactive: 0.015
